From patent US20190025321A1
These are yes or no findings as the source states them, for the method shown. For some assays here: In cells and extracts the contact can be indirect. Some entries that bind do so weakly or less than the wild type. Blank lines part the entries; values can stand above or below the binder they belong to.

Protein sequences, listed by entry. Tags and fused reporters are not part of them. Lines headed by an entry give the natural chain unless they say otherwise; changes in a name come on top.
UniProt Q9NXC5: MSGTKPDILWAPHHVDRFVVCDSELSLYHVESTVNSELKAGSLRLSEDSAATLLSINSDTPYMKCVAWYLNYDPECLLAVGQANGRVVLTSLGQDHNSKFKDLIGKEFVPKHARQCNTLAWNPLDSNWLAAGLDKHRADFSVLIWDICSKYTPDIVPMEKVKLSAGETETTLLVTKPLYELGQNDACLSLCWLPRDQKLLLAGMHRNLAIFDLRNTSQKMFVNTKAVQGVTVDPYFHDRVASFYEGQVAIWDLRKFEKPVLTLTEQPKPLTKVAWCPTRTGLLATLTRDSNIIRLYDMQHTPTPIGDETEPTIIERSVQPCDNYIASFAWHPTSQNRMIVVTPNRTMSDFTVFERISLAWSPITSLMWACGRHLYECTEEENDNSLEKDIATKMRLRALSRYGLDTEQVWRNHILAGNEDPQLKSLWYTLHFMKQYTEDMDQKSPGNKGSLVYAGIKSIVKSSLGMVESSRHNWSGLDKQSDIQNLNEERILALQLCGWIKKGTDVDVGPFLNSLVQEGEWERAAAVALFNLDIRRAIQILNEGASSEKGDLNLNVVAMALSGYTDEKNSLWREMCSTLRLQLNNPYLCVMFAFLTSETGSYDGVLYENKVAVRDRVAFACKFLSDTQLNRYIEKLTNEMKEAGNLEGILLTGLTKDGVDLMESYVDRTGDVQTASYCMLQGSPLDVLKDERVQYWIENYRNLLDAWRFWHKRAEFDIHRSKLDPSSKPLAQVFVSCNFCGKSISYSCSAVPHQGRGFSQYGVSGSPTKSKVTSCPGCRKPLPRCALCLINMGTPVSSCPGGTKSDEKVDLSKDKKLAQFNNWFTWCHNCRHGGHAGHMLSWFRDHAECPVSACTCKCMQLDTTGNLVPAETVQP
UniProt Q96S15: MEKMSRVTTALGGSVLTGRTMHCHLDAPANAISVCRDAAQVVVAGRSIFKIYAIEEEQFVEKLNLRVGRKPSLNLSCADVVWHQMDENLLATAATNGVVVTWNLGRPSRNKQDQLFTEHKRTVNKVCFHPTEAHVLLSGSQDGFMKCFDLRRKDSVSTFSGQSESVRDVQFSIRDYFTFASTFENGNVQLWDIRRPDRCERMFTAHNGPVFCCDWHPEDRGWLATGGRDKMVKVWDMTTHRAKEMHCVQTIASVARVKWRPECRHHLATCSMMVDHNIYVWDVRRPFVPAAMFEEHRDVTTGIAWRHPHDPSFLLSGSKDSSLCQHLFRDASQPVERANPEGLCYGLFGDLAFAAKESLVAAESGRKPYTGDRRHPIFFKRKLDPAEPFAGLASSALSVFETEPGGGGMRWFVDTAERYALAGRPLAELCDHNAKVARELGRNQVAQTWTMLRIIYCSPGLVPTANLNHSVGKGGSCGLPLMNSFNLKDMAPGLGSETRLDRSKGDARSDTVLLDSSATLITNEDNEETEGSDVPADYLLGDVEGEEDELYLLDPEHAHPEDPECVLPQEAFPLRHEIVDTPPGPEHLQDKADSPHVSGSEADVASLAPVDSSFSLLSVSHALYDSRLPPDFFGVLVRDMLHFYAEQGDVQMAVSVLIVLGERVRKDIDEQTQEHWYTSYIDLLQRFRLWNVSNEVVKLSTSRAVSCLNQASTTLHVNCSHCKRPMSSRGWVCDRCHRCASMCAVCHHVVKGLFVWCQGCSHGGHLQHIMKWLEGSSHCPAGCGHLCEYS
UniProt Q6PJI9: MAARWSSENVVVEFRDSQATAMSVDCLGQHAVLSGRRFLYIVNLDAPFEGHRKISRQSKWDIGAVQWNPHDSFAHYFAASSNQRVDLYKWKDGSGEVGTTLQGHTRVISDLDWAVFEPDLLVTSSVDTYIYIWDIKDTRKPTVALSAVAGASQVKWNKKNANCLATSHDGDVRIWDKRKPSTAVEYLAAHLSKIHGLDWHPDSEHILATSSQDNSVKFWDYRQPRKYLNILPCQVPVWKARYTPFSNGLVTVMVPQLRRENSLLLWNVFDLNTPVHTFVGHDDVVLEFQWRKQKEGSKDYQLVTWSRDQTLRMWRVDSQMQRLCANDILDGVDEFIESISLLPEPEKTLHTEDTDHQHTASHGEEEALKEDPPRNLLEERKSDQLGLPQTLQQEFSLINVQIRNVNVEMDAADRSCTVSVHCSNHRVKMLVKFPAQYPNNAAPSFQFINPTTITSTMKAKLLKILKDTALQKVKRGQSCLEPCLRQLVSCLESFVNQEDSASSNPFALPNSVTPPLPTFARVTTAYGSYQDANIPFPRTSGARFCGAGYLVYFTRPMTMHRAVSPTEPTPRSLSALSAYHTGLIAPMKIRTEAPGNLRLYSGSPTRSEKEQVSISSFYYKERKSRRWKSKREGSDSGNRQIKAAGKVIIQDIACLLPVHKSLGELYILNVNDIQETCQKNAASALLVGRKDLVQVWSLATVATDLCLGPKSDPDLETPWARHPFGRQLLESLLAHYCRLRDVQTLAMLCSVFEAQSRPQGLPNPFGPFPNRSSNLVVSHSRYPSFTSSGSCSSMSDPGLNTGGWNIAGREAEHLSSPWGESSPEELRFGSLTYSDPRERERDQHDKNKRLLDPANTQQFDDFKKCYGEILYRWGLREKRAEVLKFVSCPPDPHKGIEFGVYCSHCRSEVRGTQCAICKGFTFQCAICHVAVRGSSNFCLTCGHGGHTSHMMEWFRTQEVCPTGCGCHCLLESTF
UniProt P55735: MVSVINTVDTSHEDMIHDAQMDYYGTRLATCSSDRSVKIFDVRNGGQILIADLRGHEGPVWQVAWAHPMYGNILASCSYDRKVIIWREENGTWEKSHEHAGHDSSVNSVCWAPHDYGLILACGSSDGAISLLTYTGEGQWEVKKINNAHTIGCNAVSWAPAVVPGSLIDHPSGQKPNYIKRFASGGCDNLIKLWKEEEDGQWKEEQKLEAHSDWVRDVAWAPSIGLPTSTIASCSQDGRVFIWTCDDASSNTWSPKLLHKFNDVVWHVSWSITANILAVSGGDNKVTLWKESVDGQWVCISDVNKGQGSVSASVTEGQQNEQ
UniProt Q96EE3: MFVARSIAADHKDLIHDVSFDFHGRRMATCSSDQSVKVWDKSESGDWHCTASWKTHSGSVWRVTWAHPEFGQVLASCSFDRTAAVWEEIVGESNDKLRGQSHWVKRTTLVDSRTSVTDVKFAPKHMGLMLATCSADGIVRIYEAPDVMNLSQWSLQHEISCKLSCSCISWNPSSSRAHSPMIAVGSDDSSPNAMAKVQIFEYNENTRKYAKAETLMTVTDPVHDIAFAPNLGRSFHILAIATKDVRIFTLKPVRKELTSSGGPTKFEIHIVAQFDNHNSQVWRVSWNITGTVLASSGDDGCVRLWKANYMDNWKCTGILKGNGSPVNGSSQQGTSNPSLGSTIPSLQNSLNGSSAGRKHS

Columns and labels:
[1] = biological target: T1, endogenous GATOR2 complex (Seh1L, WDR59, WDR24, Sec13 and Mios) (human) (UniProt Q9NXC5+Q96S15+Q6PJI9+P55735+Q96EE3); experiment: anti-HA co-immunoprecipitation, HEK-293T cells (FIG. 3A)
[2] = biological target: T1, endogenous GATOR2 complex (Seh1L, WDR59, WDR24, Sec13 and Mios) (human); experiment: co-immunoprecipitation, HEK-293T cells (FIGS. 3A and 3B, FIG. 9B, FIG. 9C)
[3] = biological target: T1, endogenous GATOR2 complex (Seh1L, WDR59, WDR24, Sec13 and Mios) (human); experiment: anti-HA co-immunoprecipitation from CASTOR1-depleted HEK-293T cells (FIG. 9C)
[4] = biological target: T1, endogenous GATOR2 complex (Seh1L, WDR59, WDR24, Sec13 and Mios) (human); experiment: co-immunoprecipitation, anti-HA IP from HEK-293T cells starved of amino acids 50 min (-) or restimulated 10 min (+), immunoblot for endogenous mios and WDR24
[5] = biological target: T1, endogenous GATOR2 complex (Seh1L, WDR59, WDR24, Sec13 and Mios) (human); experiment: anti-FLAG immunoprecipitation from HEK-293T cells with endogenously FLAG-tagged WDR59 (FIG. 3B)
[6] = biological target: T1, endogenous GATOR2 complex (Seh1L, WDR59, WDR24, Sec13 and Mios) (human); experiment: immunoprecipitation with an anti-WDR24 antibody (anti-GSK3β as control), HEK-293T cells (FIG. 9B)
[7] = biological target: T1, endogenous GATOR2 complex (Seh1L, WDR59, WDR24, Sec13 and Mios) (human); experiment: co-immunoprecipitation, anti-FLAG IP of GATOR2 from a HEK-293T line with endogenously FLAG-tagged WDR59, immunoblot for endogenous CASTOR2
[8] = biological target: T1, endogenous GATOR2 complex (Seh1L, WDR59, WDR24, Sec13 and Mios) (human); experiment: co-immunoprecipitation of endogenous proteins, IP with an anti-WDR24 antibody from HEK-293T cells starved of or restimulated with amino acids
[9] = biological target: complete GATOR2 complex, recombinant (WDR24-FLAG, WDR59, mios, sec13, seh1L co-expressed) (UniProt Q96S15); experiment: co-immunoprecipitation, anti-HA IP of recombinant GATOR2 (here WDR59-HA, WDR24, mios, sec13, seh1L) from HEK-293T lines with Cas9 and the named guide RNAs, starved of or restimulated with amino acids; blot labelled CASTOR2 without a tag
[10] = biological target: T1, endogenous GATOR2 complex (Seh1L, WDR59, WDR24, Sec13 and Mios) (human); experiment: summary of the co-immunoprecipitation experiments
[11] = biological target: T2, recombinant CASTOR2 (protein encoded by the GATSL2 gene) (human) (UniProt A6NHX0); experiment: anti-HA co-immunoprecipitation, HEK-293T cells (FIG. 2A)
T2 sequence (looked up): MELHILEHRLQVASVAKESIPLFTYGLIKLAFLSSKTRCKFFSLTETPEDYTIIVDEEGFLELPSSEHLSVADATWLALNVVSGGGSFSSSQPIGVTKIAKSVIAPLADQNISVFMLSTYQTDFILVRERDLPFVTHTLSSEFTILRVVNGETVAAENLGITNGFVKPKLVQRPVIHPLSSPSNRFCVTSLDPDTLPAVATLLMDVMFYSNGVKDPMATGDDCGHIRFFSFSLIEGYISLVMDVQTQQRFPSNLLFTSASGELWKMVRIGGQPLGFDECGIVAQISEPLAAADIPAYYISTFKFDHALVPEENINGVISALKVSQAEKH

[12] = biological target: T3, endogenous CASTOR1 (human) (UniProt Q8WTX7); experiment: anti-HA co-immunoprecipitation, HEK-293T cells (FIG. 2B)
T3 sequence (looked up): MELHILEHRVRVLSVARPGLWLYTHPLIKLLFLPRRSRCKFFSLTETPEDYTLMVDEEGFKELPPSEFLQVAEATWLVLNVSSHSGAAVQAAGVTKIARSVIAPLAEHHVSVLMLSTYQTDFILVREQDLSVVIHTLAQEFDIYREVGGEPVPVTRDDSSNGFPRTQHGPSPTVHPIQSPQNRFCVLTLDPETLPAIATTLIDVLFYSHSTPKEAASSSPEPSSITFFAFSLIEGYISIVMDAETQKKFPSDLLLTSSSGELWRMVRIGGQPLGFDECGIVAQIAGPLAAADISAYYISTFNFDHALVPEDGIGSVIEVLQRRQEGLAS

[13] = biological target: T2, recombinant CASTOR2 (protein encoded by the GATSL2 gene) (human); experiment: anti-HA co-immunoprecipitation, HEK-293T cells (FIG. 3A)
[14] = biological target: T1, endogenous GATOR2 complex (Seh1L, WDR59, WDR24, Sec13 and Mios) (human); experiment: anti-HA co-immunoprecipitation, HEK-293T cells, immunoblot (FIG. 1D)
[15] = biological target: T1, endogenous GATOR2 complex (Seh1L, WDR59, WDR24, Sec13 and Mios) (human); experiment: anti-HA co-immunoprecipitation from HEK-293T cells growing in DMEM (FIG. 1D)
[16] = biological target: T1, endogenous GATOR2 complex (Seh1L, WDR59, WDR24, Sec13 and Mios) (human); experiment: anti-HA co-immunoprecipitation, HEK-293T cells, immunoblot for mios (FIG. 1D)
[17] = biological target: T4, recombinant CASTOR1 (Cellular Arginine Sensor for mTORC1; protein encoded by the GATS protein-like 3 gene) (human) (UniProt Q8WTX7); experiment: co-purification from HEK-293T cells, SDS-PAGE with Coomassie blue staining
T4 sequence (looked up): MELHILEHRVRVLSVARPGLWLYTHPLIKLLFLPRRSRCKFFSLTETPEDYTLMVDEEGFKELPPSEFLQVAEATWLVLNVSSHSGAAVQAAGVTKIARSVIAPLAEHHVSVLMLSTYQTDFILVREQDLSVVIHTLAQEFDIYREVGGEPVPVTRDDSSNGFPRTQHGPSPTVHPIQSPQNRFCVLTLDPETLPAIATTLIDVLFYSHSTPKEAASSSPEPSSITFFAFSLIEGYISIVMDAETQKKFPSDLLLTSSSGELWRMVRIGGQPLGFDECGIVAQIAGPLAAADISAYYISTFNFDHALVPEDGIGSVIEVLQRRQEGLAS

[18] = biological target: T2, recombinant CASTOR2 (protein encoded by the GATSL2 gene) (human); experiment: anti-HA co-immunoprecipitation of differently tagged proteins, HEK-293T cells (FIG. 2A)
[19] = biological target: T3, endogenous CASTOR1 (human); experiment: anti-HA co-immunoprecipitation, HEK-293T cells, immunoblot for endogenous CASTOR1 (FIG. 2B)
[20] = biological target: complete GATOR2 complex, recombinant (WDR24-FLAG, WDR59, mios, sec13, seh1L co-expressed) (UniProt Q96S15); experiment: displacement by co-expression, anti-FLAG immunoprecipitation, HEK-293T cells; competitor CASTOR1 (FIG. 7F)
[21] = biological target: T3, endogenous CASTOR1 (human); experiment: co-immunoprecipitation, anti-HA IP from transfected HEK-293T cells, immunoblot for endogenous CASTOR1
[22] = biological target: T4, recombinant CASTOR1 (Cellular Arginine Sensor for mTORC1; protein encoded by the GATS protein-like 3 gene) (human); experiment: co-immunoprecipitation, anti-HA IP from co-transfected HEK-293T cells, immunoblot; bait CASTOR2-HA, prey CASTOR1-FLAG
[23] = biological target: T2, recombinant CASTOR2 (protein encoded by the GATSL2 gene) (human); experiment: co-immunoprecipitation, anti-HA IP from co-transfected HEK-293T cells, immunoblot; bait CASTOR2-HA, prey CASTOR2-FLAG
[24] = biological target: T1, endogenous GATOR2 complex (Seh1L, WDR59, WDR24, Sec13 and Mios) (human); experiment: co-immunoprecipitation, anti-HA IP from transfected HEK-293T cells starved of all amino acids 50 min, immunoblot for endogenous mios
[25] = biological target: T2, recombinant CASTOR2 (protein encoded by the GATSL2 gene) (human); experiment: co-immunoprecipitation, anti-HA IP from HEK-293T cells starved of or restimulated with amino acids; bait CASTOR2-HA, prey CASTOR2-FLAG
[26] = biological target: complete GATOR2 complex, recombinant (WDR24-FLAG, WDR59, mios, sec13, seh1L co-expressed) (UniProt Q96S15); experiment: competition in co-immunoprecipitation: anti-FLAG IP of recombinant GATOR2 (WDR59-FLAG, WDR24, mios, sec13, seh1L), rising amount of myc-CASTOR2 cDNA; displaced protein HA-CASTOR1

- binding [1]: binds
- binding [2]: binds
- binding [3]: binds
- binding [4]: binds
B1: CASTOR2 homodimer (protein, human, not shown: small tags and cut ends)
chain 1: MELHILEHRLQVASVAKESIPLFTYGLIKLAFLSSKTRCKFFSLTETPEDYTIIVDEEGFLELPSSEHLSVADATWLALNVVSGGGSFSSSQPIGVTKIAKSVIAPLADQNISVFMLSTYQTDFILVRERDLPFVTHTLSSEFTILRVVNGETVAAENLGITNGFVKPKLVQRPVIHPLSSPSNRFCVTSLDPDTLPAVATLLMDVMFYSNGVKDPMATGDDCGHIRFFSFSLIEGYISLVMDVQTQQRFPSNLLFTSASGELWKMVRIGGQPLGFDECGIVAQISEPLAAADIPAYYISTFKFDHALVPEENINGVISALKVSQAEKH
chain 2: MELHILEHRLQVASVAKESIPLFTYGLIKLAFLSSKTRCKFFSLTETPEDYTIIVDEEGFLELPSSEHLSVADATWLALNVVSGGGSFSSSQPIGVTKIAKSVIAPLADQNISVFMLSTYQTDFILVRERDLPFVTHTLSSEFTILRVVNGETVAAENLGITNGFVKPKLVQRPVIHPLSSPSNRFCVTSLDPDTLPAVATLLMDVMFYSNGVKDPMATGDDCGHIRFFSFSLIEGYISLVMDVQTQQRFPSNLLFTSASGELWKMVRIGGQPLGFDECGIVAQISEPLAAADIPAYYISTFKFDHALVPEENINGVISALKVSQAEKH

- binding [5]: binds
- binding [6]: binds
- binding [7]: binds
- binding [8]: binds
- binding [9]: binds
B2: endogenous CASTOR2 (protein, human, UniProt A6NHX0 1-329, looked up)
chain: MELHILEHRLQVASVAKESIPLFTYGLIKLAFLSSKTRCKFFSLTETPEDYTIIVDEEGFLELPSSEHLSVADATWLALNVVSGGGSFSSSQPIGVTKIAKSVIAPLADQNISVFMLSTYQTDFILVRERDLPFVTHTLSSEFTILRVVNGETVAAENLGITNGFVKPKLVQRPVIHPLSSPSNRFCVTSLDPDTLPAVATLLMDVMFYSNGVKDPMATGDDCGHIRFFSFSLIEGYISLVMDVQTQQRFPSNLLFTSASGELWKMVRIGGQPLGFDECGIVAQISEPLAAADIPAYYISTFKFDHALVPEENINGVISALKVSQAEKH

- binding [10]: binds
- binding [11]: binds
- binding [12]: binds
- binding [13]: binds
- binding [14]: binds
- binding [15]: binds
- binding [16]: binds
- binding [17]: binds
- binding [18]: binds
- binding [19]: binds
- binding [20]: binds
- binding [21]: binds
- binding [22]: binds
- binding [23]: binds
- binding [24]: binds
- binding [25]: binds
- binding [26]: binds
B3: recombinant CASTOR2 (protein encoded by the GATSL2 gene) (protein, human, UniProt A6NHX0 1-329, looked up, not shown: small tags and cut ends)
chain: MELHILEHRLQVASVAKESIPLFTYGLIKLAFLSSKTRCKFFSLTETPEDYTIIVDEEGFLELPSSEHLSVADATWLALNVVSGGGSFSSSQPIGVTKIAKSVIAPLADQNISVFMLSTYQTDFILVRERDLPFVTHTLSSEFTILRVVNGETVAAENLGITNGFVKPKLVQRPVIHPLSSPSNRFCVTSLDPDTLPAVATLLMDVMFYSNGVKDPMATGDDCGHIRFFSFSLIEGYISLVMDVQTQQRFPSNLLFTSASGELWKMVRIGGQPLGFDECGIVAQISEPLAAADIPAYYISTFKFDHALVPEENINGVISALKVSQAEKH
